Measurements reported in the supplement of paper PMC8426693.
Some of the results follow.

Legend:
Assay in all cases: NMR binding call after quantification (hit when 2 of 3 NMR criteria are met) (binary (1 = binding, 0 = not binding)); higher = binding
Conditions in all cases: RNA concentration 10 µM; fragment concentration 200 µM; 293 K
SARS-CoV-2 5_SL7 RNA = system: SARS-CoV-2 5_SL7 RNA
SARS-CoV-2 5_SL8 RNA = system: SARS-CoV-2 5_SL8 RNA
[1] = system: SARS-CoV-2 attenuator hairpin (att HP) RNA
[2] = system: SARS-CoV-2 frameshift pseudoknot (PK) RNA

Measured: NMR binding call

CC(N)CN1CCOCC1 (centres undefined)
0: all assays above

Cc1ccc(OCC(=O)Nc2cc(C)on2)cc1
0: all assays above

Cc1cccc(C(=O)NC(C)C2CC2)n1 (centres undefined)
0: all assays above

CC(=O)N1CCC(NCCc2ccccc2)CC1
0: all assays above

Cc1cccc(Nc2ncnc3c2cnn3C)c1
0: all assays above

CCNCc1cn(C)nn1
0: all assays above

O=C1CN(C(=O)COc2ccccc2)CCN1
0: all assays above

OCc1ccc(-n2cnc3ccccc32)cc1
0: all assays above

CNC(C)c1cnn(C)c1 (centres undefined)
0: all assays above

CN(C)C(=O)N1CCOCC12CCOC2 (centres undefined)
0: all assays above

CNC(=O)c1c(-c2ccc(F)cc2)noc1C
0: all assays above

Cc1occc1C(=O)Nc1cc(C(C)(C)C)on1
0: all assays above

O=C(NCc1ccco1)Nc1ccc(F)cc1
0: all assays above

COc1ccccc1NC(=O)c1ccc(C)s1
0: all assays above

CC(=O)N1CCC(N)CC1
0: all assays above

Arranged by molar mass (rising): 3 of the compounds above
O=C(NCc1ccco1)Nc1ccc(F)cc1
0: all assays above

COc1ccccc1NC(=O)c1ccc(C)s1
0: all assays above

Cc1occc1C(=O)Nc1cc(C(C)(C)C)on1
0: all assays above

(next part)

CC(=O)Nc1ccc(F)c(C(=O)O)c1
0: all assays above
